Measured values: article PMC11666463
Results are given in words; binding and its absence hold for the method and conditions named. Binding seen in cells or lysates may run through a third protein. Some results given as binding are weak or reduced against the parent protein; the word gives no strength.

Protein sequences, listed by entry. Tags and fused reporters are not part of them. Residues count along the entry.
UniProt P22607, residues 23-806: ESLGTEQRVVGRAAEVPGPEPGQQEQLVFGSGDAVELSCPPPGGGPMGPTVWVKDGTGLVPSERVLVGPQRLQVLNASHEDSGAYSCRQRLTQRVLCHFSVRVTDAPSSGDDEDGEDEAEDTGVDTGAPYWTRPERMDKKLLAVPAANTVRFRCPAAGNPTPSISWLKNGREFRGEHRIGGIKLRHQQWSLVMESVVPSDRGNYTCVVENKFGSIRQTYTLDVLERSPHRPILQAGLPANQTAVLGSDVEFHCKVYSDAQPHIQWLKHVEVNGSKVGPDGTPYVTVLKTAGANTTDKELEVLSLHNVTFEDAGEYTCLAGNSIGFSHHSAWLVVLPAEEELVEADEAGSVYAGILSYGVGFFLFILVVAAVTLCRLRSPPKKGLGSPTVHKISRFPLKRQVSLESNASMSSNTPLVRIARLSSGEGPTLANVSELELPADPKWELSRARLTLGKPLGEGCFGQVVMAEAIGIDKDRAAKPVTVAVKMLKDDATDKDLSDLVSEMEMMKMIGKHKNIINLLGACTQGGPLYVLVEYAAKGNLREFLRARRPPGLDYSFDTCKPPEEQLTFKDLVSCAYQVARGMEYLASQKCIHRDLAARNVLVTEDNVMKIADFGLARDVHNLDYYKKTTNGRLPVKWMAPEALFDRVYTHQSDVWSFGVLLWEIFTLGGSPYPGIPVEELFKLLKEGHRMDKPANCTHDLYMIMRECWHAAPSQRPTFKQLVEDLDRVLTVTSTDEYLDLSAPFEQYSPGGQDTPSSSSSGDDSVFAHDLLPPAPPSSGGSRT
UniProt P21796: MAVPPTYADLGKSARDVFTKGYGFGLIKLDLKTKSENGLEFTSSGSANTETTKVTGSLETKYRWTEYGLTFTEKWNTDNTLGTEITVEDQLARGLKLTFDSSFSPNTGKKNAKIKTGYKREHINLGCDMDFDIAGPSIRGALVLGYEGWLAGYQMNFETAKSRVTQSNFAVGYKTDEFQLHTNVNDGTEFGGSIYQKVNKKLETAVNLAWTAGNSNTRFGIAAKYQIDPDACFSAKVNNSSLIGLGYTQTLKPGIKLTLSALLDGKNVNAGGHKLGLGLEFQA

Each substance was assayed against major vault protein (human (endogenous in H358 and MIA PaCa-2)) (UniProt Q14764) (assay: proximity ligation; PLA with two primary antibodies on fixed, methanol-permeabilised H358 or MIA PaCa-2 cells, DMSO or 100 nM AMG-510 for 24 h; some with MVP or scrambled siRNA; puncta per cell).

binding, binds:
fibroblast growth factor receptor 3 (from UniProt P22607 23-806)
voltage-dependent anion channel 1 (from UniProt P21796 1-283)
epidermal growth factor receptor (from UniProt P00533 25-1210)
